## Assay results

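Uptake of anthrax lethal toxin into cultured cells, read by FRET (460/530 nm ratio) and reported from the 460 nm channel; the cell line is not named here.
Each compound was tested as a concentration series from about 0.0005 to 40 µM.
The number is the fitted AC50 of the 460 nm signal alone; lower values mean a more potent effect. A falling signal goes with compounds filed as inhibitors or cytotoxic, a rising one with activators or fluorescent compounds (inferred from the filed classes).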

Values are in nM.
Common to all entries: measured here: 460 nm channel.
This is a side read-out of the assay, for part of the compounds, not drawn at random.
Potencies fitted to partial, single-point or poorly fitting curves are rough.
The first word of each remark tells which way the curve ran; it can be opposite to the aim of the assay.

Compound,AC50 (nM),remark
COc1ccc(-n2nnnc2S(=O)(=O)CC(=O)N2CCCCC2)cc1,3162,"falling, partial curve"
Clc1ccc(C(c2ccccc2Cl)C(Cl)(Cl)Cl)cc1 (centres unmarked),5012,"falling, full curve"
COc1ccc(N2CCN(CCCNC(=O)CC3Oc4ccc(C)cc4NC3=O)CC2)cc1 (centres unmarked),3162,"falling, partial curve"
Cc1ccc(C(=O)C2COC(=O)C2)cc1 (centres unmarked),31622,"rising, single point"
COc1ccc(OC)c(N=Cc2c(O)[nH]c3ccccc23)c1,25118,"rising, single point"
O=c1cc(CO)occ1O,10,"rising, full curve"
CN(C)Cc1nc2ccccc2c(=O)n1Cc1nc(-c2cc3ccccc3o2)cs1,19952,"falling, partial curve"
Clc1cccc(N2CCN(Cc3nc(-c4ccccc4)no3)CC2)c1,7943,"falling, partial curve"
Cc1ccc(-c2nnn(CC(=O)N(CC(=O)NCc3ccccc3)c3cccc(C)c3C)n2)o1,6310,"rising, partial curve"
O=C(CSc1nnc(COc2ccccc2)o1)NCCc1ccccc1,50.12,"rising, full curve"
CC(Nc1ccc(Br)cn1)c1cc(Cl)ccc1O (centres unmarked),7943,"falling, partial curve"
CSc1ncnc2c1ncn2[C@@H]1O[C@@H](CO)[C@H](O)O[C@@H]1O,3162,"falling, single point"
CCC(C)(C)NC(=O)CN(C(=O)c1snc(C(N)=O)c1N)c1ccc2c(c1)OCCO2,25118,"rising, single point"
COc1cccc(-c2nnn(CC(=O)NC3CCCC3)n2)c1OC,5012,"rising, single point"
CCOc1ccccc1C1C(C#N)=C(N)Oc2cc(C)n(Cc3ccccn3)c(=O)c21 (centres unmarked),10000,"rising, partial curve, poor fit"
Cn1cccc1Cc1nnc(SCC(=O)Nc2ccc(Cl)cc2)n1-c1ccc(F)cc1,10000,"falling, partial curve"
Cc1cccc(NC(=O)C2CCN(S(=O)(=O)c3cccc4cccnc34)CC2)c1,3162,"falling, partial curve"
CCOc1cc(C2NCc3ccccc3-n3cccc32)ccc1O (centres unmarked),501.2,"falling, full curve"
CCCOc1ccc(/C(O)=C2/C(=O)C(=O)N(c3cc(C)on3)C2c2ccc(C(=O)OC)cc2)cc1 (centres unmarked),5012,"falling, single point"
COC(=O)c1cc2c(=O)n3ccccc3nc2n(C)c1=N,5012,"rising, full curve"
O=C(CSc1nnc(-c2ccncc2)o1)Nc1ccccc1Cl,631,"falling, single point"
CCC(=O)Nc1cc(Cl)ccc1N1CCN(C(=O)CC)CC1,25118,"rising, single point"
CCNc1ncc2nc(-c3ccccc3)c(=O)n(Cc3cccs3)c2n1,3981,"rising, full curve"
CC(C)c1ccc(S(=O)(=O)N2CCN(CC(=O)Nc3ccc4c(c3)OCO4)CC2)cc1,6310,"rising, partial curve"
Cc1cccn2c(=O)c3cc(C(=O)NC(C)c4ccccc4)c(=N)n(CCCn4ccnc4)c3nc12 (centres unmarked),6310,"rising, partial curve"
COc1ccc(-c2nnc3sc(-c4cccs4)nn23)cc1OC,6310,"falling, full curve"
Cc1oc2c(O)c(O)ccc2c(=O)c1-c1cnn(-c2ccccc2)c1,10000,"falling, partial curve"
Cc1ccc(-n2c(O)c(C=NC3CCCCC3N)c(=O)[nH]c2=O)cc1C (centres unmarked),63.1,"falling, full curve"
COC(=O)C(C(=O)Nc1ncccn1)C1CCCCCC1 (centres unmarked),5012,"rising, single point"
CC(C)c1cc(C(=O)Nc2cc(Cl)ccc2O)no1,12589,"falling, partial curve"

Repeated from the top, 4 entries:

COc1ccc(-n2nnnc2S(=O)(=O)CC(=O)N2CCCCC2)cc1 read AC50 3162 nM (falling, partial curve).
Clc1ccc(C(c2ccccc2Cl)C(Cl)(Cl)Cl)cc1 (centres unmarked) read AC50 5012 nM (falling, full curve).
COc1ccc(N2CCN(CCCNC(=O)CC3Oc4ccc(C)cc4NC3=O)CC2)cc1 (centres unmarked) read AC50 3162 nM (falling, partial curve).
Cc1ccc(C(=O)C2COC(=O)C2)cc1 (centres unmarked) read AC50 31622 nM (rising, single point).

The results are deposited in PubChem (AID912; NCATS, 2007).